Assay results published in patent US8283322B2, “Formulations for nonsurgical exogenous crosslink therapy” (Orthopeutics, LP, priority 2008, dated 2012).
Several values for one entry are separate records, joined by “and”; a condition that tells them apart may be missing. Identical values can stand only once.

Test system: calf lumbar spinal discs
Assay: Diffusion study in calf lumbar spinal discs (area of diffusion zone, ImageJ)
Experimental: FIG. 12—Diffusion kinetics of genipin and BSA in calf lumbar spinal discs. 200 μl of 0.33% (w/v) or 1 mg/ml BSA-Texas Red were injected at a depth of 1 cm into the discs of individual calf lumbar motion segments and incubated for 1, 3 or 6 hours at 37° C. Samples were transected and the area of each diffusion zone at each time point and for each reagent was determined from photographs using ImageJ software.
FIG. 13—Effect of surfactants on the diffusion of GP and BSA-TR. 200 μl of 0.33% (w/v) or 1 mg/ml BSA-Texas Red formulated in PBS in the absence of presence of 0.1% (w/v) of either Tween-20 or SDS were injected at a depth of 1 cm into the discs of individual calf lumbar motion segments. Segments were incubated for 1 hr at 37° C. and the samples were then transected and the area of each diffusion zone determined from photographs using ImageJ software.
In order to observe the diffusion kinetics of these markers, GP (0.33% (w/v)) or BSA-TR (1 mg/ml) were dissolved in PBS and 200 μl injected at a depth of 1 cm into the discs of individual calf lumbar motion segments and incubated at 37° C. for 1, 3 or 6 hrs in sealed ZipLoc bags containing a sheet of paper towel moistened with H2O. In initial experiments discs were injected at three sites, the dorsal and left and right lateral regions. In some cases, however, diffusion zones merged and were not possible to quantify and in subsequent experiments injections were limited to the left and right lateral regions. Following the incubations, each segment was transected with a scalpel and frozen overnight at −20° C. (to allow the color of the genipin to develop). The samples were then thawed, photographed and the area of each diffusion zone calculated using ImageJ software.
In order to potentially maximize the diffusion of these reagents, the inventors next sought to determine whether this could be achieved through the addition of detergents. The inventors chose one mild, non-ionic surfactant (Tween-20) and one harsher anionic surfactant (SDS) for this purpose. Both 0.33% (w/v) GP and 1 mg/ml BSA-TR were formulated in either PBS alone or PBS containing 0.1% (w/v) of either SDS or Tween-20. These solutions were injected as described above and incubated at 37° C. for 1 hr. […] In contrast, SDS appeared to enhance the diffusion of GP through intervertebral disc tissue by approximately 30% under these conditions.

Compound: COC(=O)C1=CO[C@@H](O)[C@@H]2C(CO)=CC[C@H]12 [Genipin, genipin]
- area of diffusion zone, Mean (3 hr at 37° C., in PBS): 241.3 mm^2
- area of diffusion zone, Mean (6 hr at 37° C., in PBS): 330.5 mm^2

Compound: BSA-TR: bovine serum albumin (BSA) conjugated to the fluorophore Texas Red (TR); marker for large molecular weight crosslinker [reference compound]
- effect of surfactants (SDS, Tween-20) on mobility through the tissue (0.1% (w/v) surfactant in PBS, 1 hr, 37° C.): Neither surfactant appeared to have any effect
- diffusion kinetics (1, 3 or 6 hrs at 37° C. in PBS): did not appear to diffuse
- area of diffusion zone, Mean (3 hr at 37° C., in PBS): 37.3 mm^2
- area of diffusion zone, Mean (6 hr at 37° C., in PBS): 31.1 mm^2
- area of diffusion zone, single injection site (6 hr at 37° C., in PBS, listed as BSA): 23.9 H mm^2 and 32.3 L mm^2 and 37.2 R mm^2
